Measured values as given in paper PMC3237552.
No constants are given. Whether binding was seen depends on the method and setting. In cells and extracts the contact can be indirect. Here binding means that the protein was enriched with, or labelled near, the bait; the list need not be complete. Values belong to the molecule of their own block, whether it stands above or below them.

Amino acid sequences for entries named in this document (tags omitted). Residues count along the entry.
UniProt P03950, residues 25-147: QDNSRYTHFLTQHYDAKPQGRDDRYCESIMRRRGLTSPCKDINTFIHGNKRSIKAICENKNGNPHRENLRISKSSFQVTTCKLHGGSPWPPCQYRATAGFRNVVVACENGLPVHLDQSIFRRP
UniProt Q92466: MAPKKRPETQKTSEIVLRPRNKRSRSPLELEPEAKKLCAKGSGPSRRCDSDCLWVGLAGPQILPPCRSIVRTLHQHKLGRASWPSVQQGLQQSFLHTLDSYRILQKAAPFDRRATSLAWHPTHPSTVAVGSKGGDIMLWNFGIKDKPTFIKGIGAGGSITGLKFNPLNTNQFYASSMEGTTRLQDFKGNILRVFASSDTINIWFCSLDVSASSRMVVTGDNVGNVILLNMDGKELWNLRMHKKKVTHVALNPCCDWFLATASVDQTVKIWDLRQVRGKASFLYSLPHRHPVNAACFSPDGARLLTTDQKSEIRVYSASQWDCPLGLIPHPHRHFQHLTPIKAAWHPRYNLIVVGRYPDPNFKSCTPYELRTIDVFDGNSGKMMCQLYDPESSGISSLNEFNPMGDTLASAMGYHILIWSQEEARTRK
UniProt O43707: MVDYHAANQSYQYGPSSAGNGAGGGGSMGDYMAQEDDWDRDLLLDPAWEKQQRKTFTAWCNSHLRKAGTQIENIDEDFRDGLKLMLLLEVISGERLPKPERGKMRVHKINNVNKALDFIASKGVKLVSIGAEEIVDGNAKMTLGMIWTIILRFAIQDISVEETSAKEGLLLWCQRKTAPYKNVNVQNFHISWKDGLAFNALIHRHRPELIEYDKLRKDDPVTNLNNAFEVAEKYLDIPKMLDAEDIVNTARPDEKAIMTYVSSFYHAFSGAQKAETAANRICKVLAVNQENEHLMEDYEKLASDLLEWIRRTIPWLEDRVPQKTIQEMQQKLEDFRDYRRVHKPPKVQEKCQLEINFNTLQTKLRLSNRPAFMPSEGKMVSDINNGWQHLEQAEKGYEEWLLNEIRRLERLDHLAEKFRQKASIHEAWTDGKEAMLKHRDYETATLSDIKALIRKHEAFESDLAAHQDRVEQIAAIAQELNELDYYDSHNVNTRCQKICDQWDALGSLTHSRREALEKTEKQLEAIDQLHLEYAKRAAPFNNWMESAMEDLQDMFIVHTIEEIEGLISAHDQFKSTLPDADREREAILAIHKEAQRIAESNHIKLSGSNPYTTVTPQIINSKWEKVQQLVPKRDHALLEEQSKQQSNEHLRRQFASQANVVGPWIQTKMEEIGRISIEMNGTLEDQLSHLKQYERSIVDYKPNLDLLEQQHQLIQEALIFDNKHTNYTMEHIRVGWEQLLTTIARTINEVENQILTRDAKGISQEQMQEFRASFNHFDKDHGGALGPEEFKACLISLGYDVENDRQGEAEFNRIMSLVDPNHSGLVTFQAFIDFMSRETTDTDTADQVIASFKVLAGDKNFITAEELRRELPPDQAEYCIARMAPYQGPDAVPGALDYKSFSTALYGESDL
UniProt P67809: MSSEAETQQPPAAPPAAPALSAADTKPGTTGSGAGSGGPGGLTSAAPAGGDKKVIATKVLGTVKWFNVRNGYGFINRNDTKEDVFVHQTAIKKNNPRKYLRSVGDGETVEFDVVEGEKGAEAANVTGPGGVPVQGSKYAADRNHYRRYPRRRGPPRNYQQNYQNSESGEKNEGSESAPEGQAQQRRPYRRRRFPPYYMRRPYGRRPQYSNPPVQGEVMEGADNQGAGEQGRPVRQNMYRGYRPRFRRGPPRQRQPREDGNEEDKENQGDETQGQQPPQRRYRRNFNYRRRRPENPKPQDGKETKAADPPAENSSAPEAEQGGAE
UniProt Q96AE4: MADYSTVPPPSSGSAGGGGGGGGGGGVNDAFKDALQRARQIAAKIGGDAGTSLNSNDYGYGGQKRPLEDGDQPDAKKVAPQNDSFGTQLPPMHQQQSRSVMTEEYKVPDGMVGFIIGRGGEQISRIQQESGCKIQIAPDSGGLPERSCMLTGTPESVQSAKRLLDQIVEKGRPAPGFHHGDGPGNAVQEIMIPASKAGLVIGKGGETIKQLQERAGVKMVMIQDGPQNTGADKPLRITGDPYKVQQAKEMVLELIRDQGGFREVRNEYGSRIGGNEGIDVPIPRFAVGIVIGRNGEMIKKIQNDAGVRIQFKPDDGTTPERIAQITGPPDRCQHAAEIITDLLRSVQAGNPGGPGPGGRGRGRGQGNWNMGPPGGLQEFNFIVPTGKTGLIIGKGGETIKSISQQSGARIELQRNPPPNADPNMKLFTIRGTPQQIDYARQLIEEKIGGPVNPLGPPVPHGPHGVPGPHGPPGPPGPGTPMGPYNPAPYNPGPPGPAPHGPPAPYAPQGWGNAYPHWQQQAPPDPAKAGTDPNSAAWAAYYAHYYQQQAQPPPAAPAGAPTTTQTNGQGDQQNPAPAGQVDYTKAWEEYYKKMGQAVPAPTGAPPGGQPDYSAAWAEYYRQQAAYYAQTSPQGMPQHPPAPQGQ
UniProt P38646, residues 47-679: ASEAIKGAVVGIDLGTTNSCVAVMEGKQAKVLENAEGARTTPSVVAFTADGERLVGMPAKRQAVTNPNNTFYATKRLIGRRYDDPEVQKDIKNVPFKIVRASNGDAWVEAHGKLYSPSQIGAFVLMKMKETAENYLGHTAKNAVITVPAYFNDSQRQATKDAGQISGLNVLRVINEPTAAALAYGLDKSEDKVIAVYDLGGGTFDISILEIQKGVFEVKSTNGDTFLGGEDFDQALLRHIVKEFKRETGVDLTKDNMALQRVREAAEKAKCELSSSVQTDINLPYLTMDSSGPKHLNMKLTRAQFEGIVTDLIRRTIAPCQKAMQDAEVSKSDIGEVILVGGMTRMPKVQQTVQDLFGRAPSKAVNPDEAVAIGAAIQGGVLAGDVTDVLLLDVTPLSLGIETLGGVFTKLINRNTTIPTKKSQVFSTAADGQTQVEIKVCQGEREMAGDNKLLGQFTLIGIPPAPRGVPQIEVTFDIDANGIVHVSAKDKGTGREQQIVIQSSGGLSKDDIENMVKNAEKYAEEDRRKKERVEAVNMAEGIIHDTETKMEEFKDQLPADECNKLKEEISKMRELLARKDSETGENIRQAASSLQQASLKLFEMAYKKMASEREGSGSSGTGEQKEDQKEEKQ
UniProt P46940: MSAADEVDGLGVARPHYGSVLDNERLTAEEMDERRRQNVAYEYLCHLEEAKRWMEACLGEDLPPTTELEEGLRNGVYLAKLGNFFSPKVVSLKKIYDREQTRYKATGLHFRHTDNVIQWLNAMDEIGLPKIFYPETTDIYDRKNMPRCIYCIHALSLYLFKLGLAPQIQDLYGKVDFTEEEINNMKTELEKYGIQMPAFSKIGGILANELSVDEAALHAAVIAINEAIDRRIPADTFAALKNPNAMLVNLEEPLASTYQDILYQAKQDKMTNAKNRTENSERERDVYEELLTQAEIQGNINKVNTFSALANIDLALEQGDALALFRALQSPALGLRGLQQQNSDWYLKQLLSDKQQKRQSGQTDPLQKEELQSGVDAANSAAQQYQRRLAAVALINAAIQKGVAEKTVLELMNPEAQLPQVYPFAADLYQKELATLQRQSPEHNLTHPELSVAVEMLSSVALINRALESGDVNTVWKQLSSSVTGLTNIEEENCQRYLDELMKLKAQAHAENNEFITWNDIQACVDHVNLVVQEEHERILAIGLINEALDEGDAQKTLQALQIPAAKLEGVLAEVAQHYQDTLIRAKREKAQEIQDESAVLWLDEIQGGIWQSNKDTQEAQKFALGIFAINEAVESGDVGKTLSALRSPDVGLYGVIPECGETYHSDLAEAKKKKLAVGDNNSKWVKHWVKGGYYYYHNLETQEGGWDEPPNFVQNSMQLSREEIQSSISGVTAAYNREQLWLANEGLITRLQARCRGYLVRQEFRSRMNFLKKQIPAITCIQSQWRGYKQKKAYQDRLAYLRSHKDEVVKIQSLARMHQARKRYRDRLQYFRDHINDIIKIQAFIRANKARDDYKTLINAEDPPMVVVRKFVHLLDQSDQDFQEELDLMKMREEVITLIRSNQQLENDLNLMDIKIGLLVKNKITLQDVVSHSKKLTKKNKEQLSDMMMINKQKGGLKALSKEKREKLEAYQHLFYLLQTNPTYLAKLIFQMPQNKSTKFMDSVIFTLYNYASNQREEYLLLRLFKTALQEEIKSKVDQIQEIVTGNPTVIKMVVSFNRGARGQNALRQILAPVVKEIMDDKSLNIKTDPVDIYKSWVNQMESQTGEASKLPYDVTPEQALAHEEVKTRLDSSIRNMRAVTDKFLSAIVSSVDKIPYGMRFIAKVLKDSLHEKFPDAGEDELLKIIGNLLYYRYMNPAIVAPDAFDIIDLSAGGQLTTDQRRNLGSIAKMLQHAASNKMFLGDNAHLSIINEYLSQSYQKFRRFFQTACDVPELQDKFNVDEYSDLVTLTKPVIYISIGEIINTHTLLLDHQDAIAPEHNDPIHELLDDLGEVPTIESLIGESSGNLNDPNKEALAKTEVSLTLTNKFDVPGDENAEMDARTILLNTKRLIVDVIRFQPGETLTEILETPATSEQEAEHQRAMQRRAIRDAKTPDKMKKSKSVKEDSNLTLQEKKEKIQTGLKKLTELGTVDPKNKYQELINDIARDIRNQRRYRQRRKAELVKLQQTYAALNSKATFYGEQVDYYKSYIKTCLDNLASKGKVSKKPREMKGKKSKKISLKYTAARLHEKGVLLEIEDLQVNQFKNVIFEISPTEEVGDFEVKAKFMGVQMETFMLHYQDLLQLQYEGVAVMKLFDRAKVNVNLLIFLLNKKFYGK

Target: Angiogenin (human (endogenous in HeLa)) (UniProt P03950)
Test: affinity purification with mass spectrometry; HeLa cells with or without 500 ng/mL exogenous ANG for 24 h, lysed in RIPA buffer; goat anti-ANG antibody at 4°C overnight, protein G agarose; SDS-PAGE, silver stain; bands enhanced in the ANG-treated sample cut out, trypsin digestion, Q-TOF MS

Molecule: DNA damage-binding protein 2 (from UniProt Q92466 1-427)
- binding: binds

Molecule: Myosin-9 (from UniProt P35579 1-1960)
- binding: binds

Molecule: Alpha-actinin-4 (from UniProt O43707 1-911)
- binding: binds

Molecule: Y-box-binding protein 1 (from UniProt P67809 1-324)
- binding: binds

Molecule: Far upstream element-binding protein 1 (from UniProt Q96AE4 1-644)
- binding: binds

Molecule: Heat shock 70 kDa protein 9 (from UniProt P38646 47-679)
- binding: binds

B1: Argininosuccinate synthetase (protein, UniProt P00966 1-412)
chain: MSSKGSVVLAYSGGLDTSCILVWLKEQGYDVIAYLANIGQKEDFEEARKKALKLGAKKVFIEDVSREFVEEFIWPAIQSSALYEDRYLLGTSLARPCIARKQVEIAQREGAKYVSHGATGKGNDQVRFELSCYSLAPQIKVIAPWRMPEFYNRFKGRNDLMEYAKQHGIPIPVTPKNPWSMDENLMHISYEAGILENPKNQAPPGLYTKTQDPAKAPNTPDILEIEFKKGVPVKVTNVKDGTTHQTSLELFMYLNEVAGKHGVGRIDIVENRFIGMKSRGIYETPAGTILYHAHLDIEAFTMDREVRKIKQGLGLKFAELVYTGFWHSPECEFVRHCIAKSQERVEGKVQVSVLKGQVYILGRESPLSLYNEELVSMNVQGDYEPTDATGFININSLRLKEYHRLQSKVTAK
- binding: binds

Next, values leading:

- binding: binds
Molecule: Ras GTPase-activating-like protein IQGAP1 (from UniProt P46940 1-1657)

- binding: binds
B2: EF-hand domain-containing protein D2 (protein, UniProt Q96C19 1-240)
chain: MATDELATKLSRRLQMEGEGGGETPEQPGLNGAAAAAAGAPDEAAEALGSADCELSAKLLRRADLNQGIGEPQSPSRRVFNPYTEFKEFSRKQIKDMEKMFKQYDAGRDGFIDLMELKLMMEKLGAPQTHLGLKNMIKEVDEDFDSKLSFREFLLIFRKAAAGELQEDSGLCVLARLSEIDVSSEGVKGAKSFFEAKVQAINVSSRFEEEIKAEQEERKKQAEEMKQRKAAFKELQSTFK

- binding: binds
B3: E3 ubiquitin-protein ligase UHRF1 (protein, UniProt Q96T88 1-793)
chain: MWIQVRTMDGRQTHTVDSLSRLTKVEELRRKIQELFHVEPGLQRLFYRGKQMEDGHTLFDYEVRLNDTIQLLVRQSLVLPHSTKERDSELSDTDSGCCLGQSESDKSSTHGEAAAETDSRPADEDMWDETELGLYKVNEYVDARDTNMGAWFEAQVVRVTRKAPSRDEPCSSTSRPALEEDVIYHVKYDDYPENGVVQMNSRDVRARARTIIKWQDLEVGQVVMLNYNPDNPKERGFWYDAEISRKRETRTARELYANVVLGDDSLNDCRIIFVDEVFKIERPGEGSPMVDNPMRRKSGPSCKHCKDDVNRLCRVCACHLCGGRQDPDKQLMCDECDMAFHIYCLDPPLSSVPSEDEWYCPECRNDASEVVLAGERLRESKKKAKMASATSSSQRDWGKGMACVGRTKECTIVPSNHYGPIPGIPVGTMWRFRVQVSESGVHRPHVAGIHGRSNDGAYSLVLAGGYEDDVDHGNFFTYTGSGGRDLSGNKRTAEQSCDQKLTNTNRALALNCFAPINDQEGAEAKDWRSGKPVRVVRNVKGGKNSKYAPAEGNRYDGIYKVVKYWPEKGKSGFLVWRYLLRRDDDEPGPWTKEGKDRIKKLGLTMQYPEGYLEALANREREKENSKREEEEQQEGGFASPRTGKGKWKRKSAGGGPSRAGSPRRTSKKTKVEPYSLTAQQSSLIREDKSNAKLWNEVLASLKDRPASGSPFQLFLSKVEETFQCICCQELVFRPITTVCQHNVCKDCLDRSFRAQVFSCPACRYDLGRSYAMQVNQPLQTVLNQLFPGYGNGR
